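A cell-based FRET test of anthrax lethal toxin entry, tracked through the 460 nm emission signal; the cell line is not named here.
Each compound was tested as a concentration series from about 0.0005 to 40 µM.
The number is the fitted AC50 of the 460 nm signal alone; lower values mean a more potent effect. A falling signal goes with compounds filed as inhibitors or cytotoxic, a rising one with activators or fluorescent compounds (inferred from the filed classes).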

Values are in µM.
Common to all entries: measured here: 460 nm channel.
This is a side read-out of the assay, for part of the compounds, not drawn at random.
A potency from a partial, single-point or poor curve is only a rough figure.
The first word of each remark tells which way the curve ran; it can be opposite to the aim of the assay.

{"compound": "COc1ccc(-c2noc(Cc3ccccc3OC)n2)cc1", "AC50 (µM)": "12.59", "remark": "falling, partial curve"}
{"compound": "COc1ccc(Cn2nnnc2C(c2cccs2)N2CCN(c3ccccc3)CC2)cc1", "stereo": "centres unmarked", "AC50 (µM)": "10", "remark": "falling, partial curve, poor fit"}
{"compound": "CCN(CC)C(=O)CSc1nnc(CCN)o1", "AC50 (µM)": "0.631", "remark": "falling, full curve"}
{"compound": "N#Cc1cnn(Cc2ccccc2)c1N", "AC50 (µM)": "0.3162", "remark": "falling, full curve, poor fit"}
{"compound": "CCCc1cc2c(n1CCO)C(C)C1CN(C(=O)c3ccccc3)C(C)(C(=O)OC)C21", "stereo": "centres unmarked", "AC50 (µM)": "10", "remark": "rising, single point"}
{"compound": "CCCCCCC(c1c(C)n(C)n(-c2ccccc2)c1=O)c1c(C)n(C)n(-c2ccccc2)c1=O", "AC50 (µM)": "12.59", "remark": "rising, single point"}
{"compound": "CCn1nc(NC(=O)c2ccncc2)c2cc3cccc(C)c3nc21", "AC50 (µM)": "0.003981", "remark": "rising, full curve, poor fit"}
{"compound": "O=C(NCc1cccs1)c1cc2c(s1)-c1ccccc1OC2", "AC50 (µM)": "12.59", "remark": "rising, single point"}
{"compound": "CC(=O)OC[C@@H]1O[C@@H](O/N=C2/C[C@@H](O)[C@@H](O)[C@@H]3[C@@H]4C(=O)N([C@@H](C)c5ccccc5)C(=O)[C@H]4CC[C@@H]23)[C@H](OC(C)=O)[C@H](OC(C)=O)[C@@H]1OC(C)=O", "AC50 (µM)": "3.162", "remark": "falling, single point"}
{"compound": "C=CCc1cccc(CNc2nc3ccccc3n2CC)c1O", "AC50 (µM)": "12.59", "remark": "falling, single point"}
{"compound": "COC(=O)[C@@]1(Cc2ccc(OC)cc2)[C@H]2c3cc(C(=O)N(C)C)n(Cc4ccc(S(C)(=O)=O)cc4)c3C[C@H]2CN1C(=O)c1ccccc1", "AC50 (µM)": "5.012", "remark": "rising, partial curve"}
{"compound": "COc1ccc(OC)c(NC(=O)CS(=O)(=O)Cc2nc(-c3ccccc3C)oc2C)c1", "AC50 (µM)": "31.62", "remark": "falling, single point"}
{"compound": "CCOC(=O)Cc1nnc(NC(=O)c2ncn[nH]2)s1", "AC50 (µM)": "5.012", "remark": "falling, partial curve"}
{"compound": "Cc1cccc(CNc2ncnc3ccc(-c4cccc(NS(C)(=O)=O)c4)cc23)c1", "AC50 (µM)": "3.981", "remark": "falling, full curve"}
{"compound": "COc1ccc(C(=O)CC(=O)c2c(O)cc(OC)cc2OC)cc1", "AC50 (µM)": "1", "remark": "rising, single point"}
{"compound": "CCc1ccc(CCC(=O)Nc2ccc(C)cc2C)o1", "AC50 (µM)": "0.3162", "remark": "falling, full curve, poor fit"}
{"compound": "c1ccc(-c2ccc(-c3ccc(C4=NCCN4)cc3)o2)cc1", "AC50 (µM)": "3.162", "remark": "rising, partial curve"}
{"compound": "Cn1cccc1C(=O)N1CCC2(CC1)CN(Cc1cc(C(F)(F)F)cc(C(F)(F)F)c1)C2", "AC50 (µM)": "7.943", "remark": "falling, partial curve"}

Once more, the final 2:

c1ccc(-c2ccc(-c3ccc(C4=NCCN4)cc3)o2)cc1 read AC50 3.162 µM (rising, partial curve).
Cn1cccc1C(=O)N1CCC2(CC1)CN(Cc1cc(C(F)(F)F)cc(C(F)(F)F)c1)C2 read AC50 7.943 µM (falling, partial curve).

The results are deposited in PubChem (AID912; NCATS, 2007).